PubChem BioAssay AID1671195 | Yale University | 2021

Screen: 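Regulators of LDL receptor activity judged by labelled LDL uptake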 (primary screen)
Cells: human Huh7 hepatoma cells
Knock-down reagent: siRNA pool against human genes, 18 nM
Timing: about 2 to 2.5 days of knockdown, then 8 h LDL uptake
Treatment: DiI-labelled LDL at 30 µg/ml for 8 h, in lipoprotein-deficient serum medium
Read-out: 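Fluorescent LDL signal imaged in cells, scaled to the plate median, robust z-score for each replicate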
Reading the numbers: robust z-score: higher = more LDL uptake after knockdown
Hit rule: 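Active when two or more replicates show a robust z-score above 2 or below -2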
This is a random part of about 22,000 reagents tested. About 1,510 of them (6.9%) count as active. 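Active includes knockdowns raising or lowering LDL uptake; positive z-scores mean more uptake, negative mean less.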 A number with no mark means an inactive call. Reagent sequences are not shown.

gene	robust z-score, replicate 1	robust z-score, replicate 2	robust z-score, replicate 3
TENM1 (teneurin transmembrane protein 1)	-0.46	-0.836	-1.45
CEP20 (centrosomal protein 20)	-1.41	-1.64	-1.32
TSPAN13 (tetraspanin 13)	-1.18	0.139	-1.1
ABRAXAS1 (abraxas 1, BRCA1 A complex subunit)	1.9 (active)	2.28	1.58
DRD5 (dopamine receptor D5)	-0.346	1.51	-0.804
MCRIP2 (MAPK regulated corepressor interacting protein 2)	-0.837	-0.358	-0.519
H6PD (hexose-6-phosphate dehydrogenase/glucose 1-dehydrogenase)	-0.336	-0.255	-0.319
SPN (sialophorin)	-0.112	1.59	0.959
FAM20C (FAM20C golgi associated secretory pathway kinase)	-1.14	0.43	0.258
GPBP1L1 (GC-rich promoter binding protein 1 like 1)	-0.876	-1.64	-1.35
RXRA (retinoid X receptor alpha)	-0.0689	-0.0221	0.372
CHMP1B (charged multivesicular body protein 1B)	0.275	-0.112	-0.466
COQ9 (coenzyme Q9)	2.48 (active)	3.93	3.1
HGF (hepatocyte growth factor)	0.0333	-0.317	-0.372
FCHSD2 (FCH and double SH3 domains 2)	-1.1	1.38	0.94
MICU2 (mitochondrial calcium uptake 2)	1.28	1.3	1.25
GALNT8 (polypeptide N-acetylgalactosaminyltransferase 8)	-0.361	1.66	-0.507
LOC389772 (retired record)	1.38	0.776	1.45
CTSK (cathepsin K)	1.27	0.153	0.696
NFE2L3 (NFE2 like bZIP transcription factor 3)	0.357	-0.076	0.165
TLL1 (tolloid like 1)	1.02	0.631	1.64
SH2D3A (SH2 domain containing 3A)	-0.52	0.626	-0.269
THAP12 (THAP domain containing 12)	-0.473	-0.247	-0.553
LOC392208 (retired record)	-0.929	-1.4	-1.43
MIIP (migration and invasion inhibitory protein)	0.356	0.625	0.502
TGIF1 (TGFB induced factor homeobox 1)	0.978	1.53	1.36
TEX261 (testis expressed 261)	-0.817	0.106	-0.73
UBQLN4P1 (ubiquilin 4 pseudogene 1)	-0.126	0.0695	0.25
ADSL (adenylosuccinate lyase)	0.339	1.29	0.365

Entries above called active, once more:
gene	robust z-score, replicate 1	robust z-score, replicate 2	robust z-score, replicate 3
ABRAXAS1 (abraxas 1, BRCA1 A complex subunit)	1.9 (active)	2.28	1.58
COQ9 (coenzyme Q9)	2.48 (active)	3.93	3.1

Further reagents follow:
gene	robust z-score, replicate 1	robust z-score, replicate 2	robust z-score, replicate 3
ADH1B (alcohol dehydrogenase 1B (class I), beta polypeptide)	-0.214	0.11	0.433
LTA (lymphotoxin alpha)	0.0743	-0.0356	0.144
ACTN1 (actinin alpha 1)	1.63	2.03	0.671
NAA80 (N-alpha-acetyltransferase 80, NatH catalytic subunit)	0.101	0.0208	1.13
HYAL1 (hyaluronidase 1)	-0.909	-0.622	-0.773
PTHLH (parathyroid hormone like hormone)	0.474	0.921	0.325
RPL17P20 (ribosomal protein L17 pseudogene 20)	-0.477	-0.516	-0.553
ZNF892 (zinc finger protein 892)	0.381	0.101	0.355
PNMA8A (PNMA family member 8A)	-0.538	1.27	-1.87
HAPLN2 (hyaluronan and proteoglycan link protein 2)	-1.03	-1.31	-1.37
PIK3C3 (phosphatidylinositol 3-kinase catalytic subunit type 3)	-0.221	-0.524	-0.609
ERC1 (ELKS/RAB6-interacting/CAST family member 1)	0.686	0.59	0.282
TENT4A (terminal nucleotidyltransferase 4A)	0.104	-0.462	-1.01
HTR1E (5-hydroxytryptamine receptor 1E)	-0.394	-0.0888	-0.48
TMED4 (transmembrane p24 trafficking protein 4)	-0.779	-0.958	-0.824
LOC149704 (retired record)	-0.0522	-0.733	-0.644
RPS24P15 (ribosomal protein S24 pseudogene 15)	-0.861	-0.812	-0.558
MED14 (mediator complex subunit 14)	0.3	-2.62	-0.189
KCNK2 (potassium two pore domain channel subfamily K member 2)	0.715	0.0781	0.922
TRIQK (triple QxxK/R motif containing)	0.289	0.163	-0.0671
OAZ3 (ornithine decarboxylase antizyme 3)	-0.624	-1.21	-0.577
PRL (prolactin)	-0.663	-0.337	-0.796
SRRT (serrate, RNA effector molecule)	-0.386	-2.15	-0.757
HJV (hemojuvelin BMP co-receptor)	0.342	2.79	0.969
CHTF8 (chromosome transmission fidelity factor 8)	-1.49	-0.833	-0.726
TTC9 (tetratricopeptide repeat domain 9)	-0.149	-0.939	0.349
BICD2 (BICD cargo adaptor 2)	0.735	0.488	1.1
SGCG (sarcoglycan gamma)	1.72	0.392	0.131
CNTN2 (contactin 2)	0.118	-0.568	-0.336
ECHDC1 (ethylmalonyl-CoA decarboxylase 1)	-0.838	-0.935	-1.42
SPIB (Spi-B transcription factor)	-0.918	-0.815	-1.94
LOC393076 (retired record)	-1.12	-1.05	-0.754
LZTS1 (leucine zipper tumor suppressor 1)	0.684	-1.07	0.0693
LOC401891 (retired record)	-0.19	0.44	0.584
FAM215A (family with sequence similarity 215 member A)	0.793	-1.63	-0.753
GRK5 (G protein-coupled receptor kinase 5)	-0.544	-1.4	-1.36
RFPL4B (ret finger protein like 4B)	0.98	0.6	0.76
CORT (cortistatin)	-0.302	-1.21	-1.38
OR12D3 (olfactory receptor family 12 subfamily D member 3)	-0.814	-1.15	-1.02
